Data as given in patent US12359121B2, “Neutral fluorescent mitochondrial marker as amide derivative, and preparation method and use thereof” (SOOCHOW UNIVERSITY, priority 2021, dated 2025).

Test system: HeLa cells
Test: Photobleaching study in living cells
Type: cell-based
Details: 5 μM, 1-30 min

Compound | fluorescence intensity after continuous laser irradiation (laser source 561 nm) | fluorescence intensity after continuous laser irradiation (laser source 405 nm)
CCN(CC)c1ccc2c(C)c(-c3ccc(C(N)=O)cc3)c(=O)oc2c1 [dye 2a] | only a slight decrease in fluorescence intensity | –
CCN(CC)c1ccc2nc3c4ccc(-c5ccc(C(N)=O)cc5)cc4c(=O)cc-3oc2c1 [dye 3a] | – | only a slight decrease in fluorescence intensity
